The text below walks through data of publication PMC5047623.

The chains behind the UniProt entries cited, without tags or fusion partners. Where a name states a change or a piece, a line headed by the entry shows the natural chain unless it says otherwise. Residues count along the entry.
UniProt P06756: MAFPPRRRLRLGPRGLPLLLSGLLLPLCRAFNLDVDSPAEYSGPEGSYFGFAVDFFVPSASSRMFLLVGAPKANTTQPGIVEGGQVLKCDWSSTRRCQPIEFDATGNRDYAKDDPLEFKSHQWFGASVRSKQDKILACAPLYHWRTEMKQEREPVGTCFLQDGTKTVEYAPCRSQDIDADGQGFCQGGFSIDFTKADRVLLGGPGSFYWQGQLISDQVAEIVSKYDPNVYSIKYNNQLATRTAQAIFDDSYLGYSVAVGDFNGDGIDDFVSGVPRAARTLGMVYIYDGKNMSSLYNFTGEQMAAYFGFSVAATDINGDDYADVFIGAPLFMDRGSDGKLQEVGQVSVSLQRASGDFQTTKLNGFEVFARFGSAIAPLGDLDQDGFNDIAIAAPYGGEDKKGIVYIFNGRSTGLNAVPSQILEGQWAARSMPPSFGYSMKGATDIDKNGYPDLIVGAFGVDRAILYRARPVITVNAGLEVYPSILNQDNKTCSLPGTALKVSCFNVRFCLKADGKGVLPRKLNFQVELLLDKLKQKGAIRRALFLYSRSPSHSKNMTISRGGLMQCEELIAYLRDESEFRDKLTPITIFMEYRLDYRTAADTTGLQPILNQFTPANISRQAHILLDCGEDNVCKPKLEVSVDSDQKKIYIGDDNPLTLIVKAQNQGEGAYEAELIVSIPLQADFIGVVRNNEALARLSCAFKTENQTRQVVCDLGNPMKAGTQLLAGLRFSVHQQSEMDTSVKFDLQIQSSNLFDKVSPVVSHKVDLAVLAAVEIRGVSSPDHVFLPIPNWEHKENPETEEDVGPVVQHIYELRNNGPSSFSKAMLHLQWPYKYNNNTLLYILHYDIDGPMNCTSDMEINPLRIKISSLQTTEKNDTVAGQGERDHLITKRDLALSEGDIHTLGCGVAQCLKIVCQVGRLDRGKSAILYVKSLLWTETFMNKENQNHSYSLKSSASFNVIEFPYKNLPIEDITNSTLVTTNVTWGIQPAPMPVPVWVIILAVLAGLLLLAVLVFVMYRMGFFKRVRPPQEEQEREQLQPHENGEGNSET
UniProt P05106: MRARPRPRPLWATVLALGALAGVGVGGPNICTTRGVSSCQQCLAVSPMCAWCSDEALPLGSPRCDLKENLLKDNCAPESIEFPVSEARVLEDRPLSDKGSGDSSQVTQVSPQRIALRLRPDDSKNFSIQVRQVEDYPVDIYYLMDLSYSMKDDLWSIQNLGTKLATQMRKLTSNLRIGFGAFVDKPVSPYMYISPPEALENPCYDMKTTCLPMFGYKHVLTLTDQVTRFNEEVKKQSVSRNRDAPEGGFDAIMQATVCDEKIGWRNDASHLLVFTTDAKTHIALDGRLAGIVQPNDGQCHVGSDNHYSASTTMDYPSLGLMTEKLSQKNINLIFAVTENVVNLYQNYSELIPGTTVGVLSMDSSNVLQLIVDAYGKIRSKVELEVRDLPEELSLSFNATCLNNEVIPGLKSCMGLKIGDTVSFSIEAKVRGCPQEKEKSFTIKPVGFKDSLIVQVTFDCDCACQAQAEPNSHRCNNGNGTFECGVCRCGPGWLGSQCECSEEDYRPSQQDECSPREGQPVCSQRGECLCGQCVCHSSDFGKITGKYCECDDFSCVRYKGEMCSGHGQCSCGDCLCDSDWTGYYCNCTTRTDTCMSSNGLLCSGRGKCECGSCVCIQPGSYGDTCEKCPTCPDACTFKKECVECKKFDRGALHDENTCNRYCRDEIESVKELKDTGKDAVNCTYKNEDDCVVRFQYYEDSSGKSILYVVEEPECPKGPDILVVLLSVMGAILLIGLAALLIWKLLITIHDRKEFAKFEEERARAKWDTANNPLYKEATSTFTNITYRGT
UniProt P08648: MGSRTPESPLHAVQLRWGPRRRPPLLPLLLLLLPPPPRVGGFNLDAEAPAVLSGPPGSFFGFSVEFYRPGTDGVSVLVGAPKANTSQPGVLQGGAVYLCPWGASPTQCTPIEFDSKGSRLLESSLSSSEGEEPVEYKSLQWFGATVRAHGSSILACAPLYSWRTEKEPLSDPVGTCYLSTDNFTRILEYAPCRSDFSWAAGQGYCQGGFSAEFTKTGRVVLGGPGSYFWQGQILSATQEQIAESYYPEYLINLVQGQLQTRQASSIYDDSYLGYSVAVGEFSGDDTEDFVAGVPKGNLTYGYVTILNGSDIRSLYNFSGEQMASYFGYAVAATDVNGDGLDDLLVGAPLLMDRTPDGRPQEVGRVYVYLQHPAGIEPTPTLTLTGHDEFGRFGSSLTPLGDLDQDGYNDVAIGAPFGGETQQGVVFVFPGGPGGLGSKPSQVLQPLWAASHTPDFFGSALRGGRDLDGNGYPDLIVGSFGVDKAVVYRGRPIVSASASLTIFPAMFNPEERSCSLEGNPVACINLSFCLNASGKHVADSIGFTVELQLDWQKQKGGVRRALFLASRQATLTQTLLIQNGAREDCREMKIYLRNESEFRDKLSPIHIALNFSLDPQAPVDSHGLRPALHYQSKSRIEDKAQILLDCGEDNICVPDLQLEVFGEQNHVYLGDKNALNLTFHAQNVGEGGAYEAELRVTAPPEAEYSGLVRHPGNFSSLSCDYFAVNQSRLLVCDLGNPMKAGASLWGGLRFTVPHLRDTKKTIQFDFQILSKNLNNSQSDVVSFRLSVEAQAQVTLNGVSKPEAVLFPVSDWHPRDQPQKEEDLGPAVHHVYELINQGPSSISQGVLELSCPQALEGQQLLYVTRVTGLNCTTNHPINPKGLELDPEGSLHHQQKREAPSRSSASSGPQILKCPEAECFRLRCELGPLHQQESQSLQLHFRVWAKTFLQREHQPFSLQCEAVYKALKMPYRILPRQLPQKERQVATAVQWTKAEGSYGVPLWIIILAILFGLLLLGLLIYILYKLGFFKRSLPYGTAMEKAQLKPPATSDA
UniProt P05556: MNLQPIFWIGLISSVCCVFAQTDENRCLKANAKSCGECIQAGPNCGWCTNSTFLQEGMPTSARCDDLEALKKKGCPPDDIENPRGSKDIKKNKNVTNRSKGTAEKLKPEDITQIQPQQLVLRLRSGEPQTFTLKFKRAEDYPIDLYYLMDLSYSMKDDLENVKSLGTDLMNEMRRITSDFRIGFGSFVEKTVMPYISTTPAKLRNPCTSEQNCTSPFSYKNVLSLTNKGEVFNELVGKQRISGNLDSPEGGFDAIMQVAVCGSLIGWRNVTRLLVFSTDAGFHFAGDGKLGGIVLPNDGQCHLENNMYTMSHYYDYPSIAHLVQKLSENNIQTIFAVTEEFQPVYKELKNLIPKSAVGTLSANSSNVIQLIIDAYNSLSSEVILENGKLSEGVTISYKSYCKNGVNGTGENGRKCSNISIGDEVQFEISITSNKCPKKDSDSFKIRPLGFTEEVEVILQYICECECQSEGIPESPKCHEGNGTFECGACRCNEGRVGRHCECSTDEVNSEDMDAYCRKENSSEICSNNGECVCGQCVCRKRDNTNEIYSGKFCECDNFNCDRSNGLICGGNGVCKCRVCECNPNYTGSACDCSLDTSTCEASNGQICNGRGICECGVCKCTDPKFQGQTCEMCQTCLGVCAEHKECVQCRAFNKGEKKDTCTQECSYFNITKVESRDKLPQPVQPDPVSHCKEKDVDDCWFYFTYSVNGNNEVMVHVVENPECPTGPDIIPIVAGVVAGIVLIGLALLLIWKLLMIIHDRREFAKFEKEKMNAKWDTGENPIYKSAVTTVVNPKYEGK
UniProt Q02763, residues 23-1124: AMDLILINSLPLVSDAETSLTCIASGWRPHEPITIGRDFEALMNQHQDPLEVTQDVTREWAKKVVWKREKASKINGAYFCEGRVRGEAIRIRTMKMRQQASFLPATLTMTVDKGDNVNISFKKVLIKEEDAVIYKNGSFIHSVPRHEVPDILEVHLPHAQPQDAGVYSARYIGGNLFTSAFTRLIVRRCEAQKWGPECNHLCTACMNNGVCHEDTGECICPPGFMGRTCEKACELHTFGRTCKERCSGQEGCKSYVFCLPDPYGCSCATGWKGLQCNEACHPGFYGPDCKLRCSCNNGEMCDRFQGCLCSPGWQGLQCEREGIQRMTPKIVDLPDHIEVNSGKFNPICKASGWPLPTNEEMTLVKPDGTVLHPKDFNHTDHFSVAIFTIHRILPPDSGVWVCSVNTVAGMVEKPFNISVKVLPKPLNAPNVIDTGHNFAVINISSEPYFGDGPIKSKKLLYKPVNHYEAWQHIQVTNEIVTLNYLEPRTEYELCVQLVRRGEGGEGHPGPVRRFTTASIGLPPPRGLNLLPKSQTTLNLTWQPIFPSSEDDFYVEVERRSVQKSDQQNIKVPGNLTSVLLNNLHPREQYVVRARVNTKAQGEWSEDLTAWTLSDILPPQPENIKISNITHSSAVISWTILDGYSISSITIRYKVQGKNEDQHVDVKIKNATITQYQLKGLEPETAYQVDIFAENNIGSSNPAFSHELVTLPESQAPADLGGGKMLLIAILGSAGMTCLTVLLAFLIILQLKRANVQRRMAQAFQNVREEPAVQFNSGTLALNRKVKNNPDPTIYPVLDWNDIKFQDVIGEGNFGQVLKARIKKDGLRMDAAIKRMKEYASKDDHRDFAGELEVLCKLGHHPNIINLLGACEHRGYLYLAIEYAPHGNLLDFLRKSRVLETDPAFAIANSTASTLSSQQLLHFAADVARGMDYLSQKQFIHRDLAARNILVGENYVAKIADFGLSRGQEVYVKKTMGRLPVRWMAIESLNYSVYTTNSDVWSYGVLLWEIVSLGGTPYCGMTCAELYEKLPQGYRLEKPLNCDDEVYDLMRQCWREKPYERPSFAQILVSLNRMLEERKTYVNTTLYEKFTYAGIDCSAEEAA

Results are given in words; binding and its absence hold for the method and conditions named. For some assays here: Binding seen in cells or lysates may run through a third protein. Some binding calls cover weakened binding; strength is not graded here. For some assays here: Sequences can lack the tags named with a protein.

For test [1], the target named is T1, Tie1(1–4)-Fc, region of Tie1 equivalent to the Tie2 ligand-binding domain (excluding the fibronectin repeats) (UniProt P35590).
T1 sequence: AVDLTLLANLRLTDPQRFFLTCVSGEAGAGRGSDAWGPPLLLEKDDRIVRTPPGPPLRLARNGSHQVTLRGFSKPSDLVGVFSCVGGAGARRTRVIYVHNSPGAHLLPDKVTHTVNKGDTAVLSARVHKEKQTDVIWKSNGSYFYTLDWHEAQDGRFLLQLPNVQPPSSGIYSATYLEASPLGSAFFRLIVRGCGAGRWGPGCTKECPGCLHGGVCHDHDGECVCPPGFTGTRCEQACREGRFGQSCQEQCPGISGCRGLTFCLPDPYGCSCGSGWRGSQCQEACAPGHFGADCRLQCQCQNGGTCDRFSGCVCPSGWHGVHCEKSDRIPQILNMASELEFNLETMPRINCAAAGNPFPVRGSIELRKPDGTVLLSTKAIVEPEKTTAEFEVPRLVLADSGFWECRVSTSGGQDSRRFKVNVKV
Nature of the test: pull-down; pure protein immunoprecipitation: purified proteins (α5ß1 12.5nM, Tie(1–4)-Fc 33nM, Tie2 full ectodomain 24nM, Ang-RBD-Fc 50nM) in 1 mL HBST with 25 μL ProteinA beads overnight; with or without fibronectin (5μg/mL); Fc-tagged protein precipitated; western blot; both purified.

Test [2] addresses T1, Tie1(1–4)-Fc, region of Tie1 equivalent to the Tie2 ligand-binding domain (excluding the fibronectin repeats). Nature of the test: pull-down; competition: 33nM Tie1(1–4)-Fc and 12.5nM α5ß1 ectodomain with 100nM or 600nM untagged Tie2(1–4); Tie1(1–4)-Fc precipitated with Protein-A sepharose; blot anti-α5; both purified.
Test [3] deals with full-length flag-tagged integrin αVß3 (human) (UniProt P06756+P05106). The test is described as follows: co-IP; transiently transfected HEK293 cells, no Tie2 or integrin ligands added; 1 mg lysate, IP with anti-Flag antibody and Protein-A beads overnight; blot anti-HA, anti-myc or anti-GFP.
For test [4], the target named is full-length flag-tagged integrin α5ß1 (human) (UniProt P08648+P05556). Described as above.

“purified α5ß1 ectodomain protein (from UniProt P08648 42-995; P05556 21-728) (complex)”: the binding result in test [1] and in test [2] was “binds” in each case.

Regarding “full-length myc-tagged Tie2 receptor (from UniProt Q02763 23-1124)”, in test [3], the binding result is given as “binds”.

Consider “full-length HA-tagged Tie1 receptor (from UniProt P35590 22-1138)”, for which the binding result in test [3] and in test [4] was “binds” in each case.
